According to the supplement of paper PMC10849652:
Some of the results follow.

The chains behind the UniProt entries cited, without tags or fusion partners. Where a name states a change or a piece, a line headed by the entry shows the natural chain unless it says otherwise.
UniProt Q03154: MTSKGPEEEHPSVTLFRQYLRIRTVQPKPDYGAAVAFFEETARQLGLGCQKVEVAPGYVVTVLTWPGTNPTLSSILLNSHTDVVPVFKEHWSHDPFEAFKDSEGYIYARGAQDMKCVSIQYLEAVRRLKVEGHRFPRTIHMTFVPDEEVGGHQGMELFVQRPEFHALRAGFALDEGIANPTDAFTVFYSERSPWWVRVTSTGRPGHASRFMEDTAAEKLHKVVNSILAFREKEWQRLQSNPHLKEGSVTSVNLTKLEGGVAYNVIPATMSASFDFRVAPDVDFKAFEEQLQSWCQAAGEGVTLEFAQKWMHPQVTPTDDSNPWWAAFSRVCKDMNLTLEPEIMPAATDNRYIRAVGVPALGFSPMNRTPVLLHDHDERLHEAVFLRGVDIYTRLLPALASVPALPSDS
UniProt Q9NZD4: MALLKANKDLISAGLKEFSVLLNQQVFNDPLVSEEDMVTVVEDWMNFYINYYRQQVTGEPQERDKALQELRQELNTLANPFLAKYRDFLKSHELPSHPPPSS
UniProt P55263: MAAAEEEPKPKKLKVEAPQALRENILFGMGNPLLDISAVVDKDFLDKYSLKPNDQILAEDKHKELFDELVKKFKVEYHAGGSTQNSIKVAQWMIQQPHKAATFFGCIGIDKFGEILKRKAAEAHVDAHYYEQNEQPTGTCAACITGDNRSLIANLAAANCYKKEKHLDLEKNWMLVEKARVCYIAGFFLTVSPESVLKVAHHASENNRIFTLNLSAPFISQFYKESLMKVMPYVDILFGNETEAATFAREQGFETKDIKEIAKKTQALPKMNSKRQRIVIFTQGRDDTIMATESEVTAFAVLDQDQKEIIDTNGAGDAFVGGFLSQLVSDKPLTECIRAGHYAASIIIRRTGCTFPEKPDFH
UniProt Q13444: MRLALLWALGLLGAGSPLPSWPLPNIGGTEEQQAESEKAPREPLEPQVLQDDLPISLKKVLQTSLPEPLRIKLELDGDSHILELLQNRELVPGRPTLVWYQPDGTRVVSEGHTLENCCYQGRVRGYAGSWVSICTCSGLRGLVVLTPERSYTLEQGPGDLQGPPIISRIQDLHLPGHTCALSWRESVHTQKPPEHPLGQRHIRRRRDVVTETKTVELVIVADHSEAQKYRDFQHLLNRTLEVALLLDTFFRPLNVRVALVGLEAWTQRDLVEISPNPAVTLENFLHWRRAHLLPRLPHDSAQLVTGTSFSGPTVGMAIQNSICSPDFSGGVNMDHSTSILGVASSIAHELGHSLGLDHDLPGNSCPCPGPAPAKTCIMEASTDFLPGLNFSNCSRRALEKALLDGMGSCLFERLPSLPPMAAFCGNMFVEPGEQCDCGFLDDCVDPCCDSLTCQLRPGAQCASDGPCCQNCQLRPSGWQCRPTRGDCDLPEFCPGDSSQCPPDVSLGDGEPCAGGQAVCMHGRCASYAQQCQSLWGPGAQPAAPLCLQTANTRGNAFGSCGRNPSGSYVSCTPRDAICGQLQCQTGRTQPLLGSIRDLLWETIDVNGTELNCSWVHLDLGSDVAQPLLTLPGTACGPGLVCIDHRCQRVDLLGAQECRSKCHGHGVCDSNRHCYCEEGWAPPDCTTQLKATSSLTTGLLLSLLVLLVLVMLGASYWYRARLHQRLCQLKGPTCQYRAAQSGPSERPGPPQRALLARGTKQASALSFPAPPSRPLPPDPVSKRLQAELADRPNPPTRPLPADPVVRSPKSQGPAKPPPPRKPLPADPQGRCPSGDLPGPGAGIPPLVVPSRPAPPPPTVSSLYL
UniProt Q9NUQ2: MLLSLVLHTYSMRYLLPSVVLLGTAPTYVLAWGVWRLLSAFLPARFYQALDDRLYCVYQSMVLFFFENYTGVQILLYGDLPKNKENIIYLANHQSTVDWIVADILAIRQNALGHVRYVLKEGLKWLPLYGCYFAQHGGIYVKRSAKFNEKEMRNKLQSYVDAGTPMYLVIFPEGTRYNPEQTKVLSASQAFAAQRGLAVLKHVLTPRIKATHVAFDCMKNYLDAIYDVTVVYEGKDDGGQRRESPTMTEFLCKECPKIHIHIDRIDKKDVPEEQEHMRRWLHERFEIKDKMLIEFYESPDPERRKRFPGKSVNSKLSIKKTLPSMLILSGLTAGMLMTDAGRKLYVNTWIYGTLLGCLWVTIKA
UniProt Q8TED9: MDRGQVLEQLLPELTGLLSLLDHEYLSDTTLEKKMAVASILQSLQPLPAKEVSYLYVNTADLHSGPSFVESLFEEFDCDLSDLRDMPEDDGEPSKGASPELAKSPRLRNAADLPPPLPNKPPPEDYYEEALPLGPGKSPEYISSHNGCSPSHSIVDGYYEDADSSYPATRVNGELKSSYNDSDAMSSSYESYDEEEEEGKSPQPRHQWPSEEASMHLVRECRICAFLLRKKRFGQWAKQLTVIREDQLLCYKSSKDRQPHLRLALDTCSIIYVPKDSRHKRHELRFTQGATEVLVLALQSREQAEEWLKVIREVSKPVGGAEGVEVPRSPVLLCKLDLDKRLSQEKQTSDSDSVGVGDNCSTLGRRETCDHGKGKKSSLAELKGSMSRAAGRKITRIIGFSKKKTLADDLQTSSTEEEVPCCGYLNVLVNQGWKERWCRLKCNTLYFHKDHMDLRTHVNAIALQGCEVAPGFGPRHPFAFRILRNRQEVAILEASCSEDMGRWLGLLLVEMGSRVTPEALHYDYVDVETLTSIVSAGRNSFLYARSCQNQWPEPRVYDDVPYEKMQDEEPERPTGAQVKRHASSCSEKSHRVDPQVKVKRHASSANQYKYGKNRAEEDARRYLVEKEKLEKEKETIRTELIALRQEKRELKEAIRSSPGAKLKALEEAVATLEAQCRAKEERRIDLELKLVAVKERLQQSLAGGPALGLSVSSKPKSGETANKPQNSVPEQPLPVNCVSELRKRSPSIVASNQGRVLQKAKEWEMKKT
UniProt P51825: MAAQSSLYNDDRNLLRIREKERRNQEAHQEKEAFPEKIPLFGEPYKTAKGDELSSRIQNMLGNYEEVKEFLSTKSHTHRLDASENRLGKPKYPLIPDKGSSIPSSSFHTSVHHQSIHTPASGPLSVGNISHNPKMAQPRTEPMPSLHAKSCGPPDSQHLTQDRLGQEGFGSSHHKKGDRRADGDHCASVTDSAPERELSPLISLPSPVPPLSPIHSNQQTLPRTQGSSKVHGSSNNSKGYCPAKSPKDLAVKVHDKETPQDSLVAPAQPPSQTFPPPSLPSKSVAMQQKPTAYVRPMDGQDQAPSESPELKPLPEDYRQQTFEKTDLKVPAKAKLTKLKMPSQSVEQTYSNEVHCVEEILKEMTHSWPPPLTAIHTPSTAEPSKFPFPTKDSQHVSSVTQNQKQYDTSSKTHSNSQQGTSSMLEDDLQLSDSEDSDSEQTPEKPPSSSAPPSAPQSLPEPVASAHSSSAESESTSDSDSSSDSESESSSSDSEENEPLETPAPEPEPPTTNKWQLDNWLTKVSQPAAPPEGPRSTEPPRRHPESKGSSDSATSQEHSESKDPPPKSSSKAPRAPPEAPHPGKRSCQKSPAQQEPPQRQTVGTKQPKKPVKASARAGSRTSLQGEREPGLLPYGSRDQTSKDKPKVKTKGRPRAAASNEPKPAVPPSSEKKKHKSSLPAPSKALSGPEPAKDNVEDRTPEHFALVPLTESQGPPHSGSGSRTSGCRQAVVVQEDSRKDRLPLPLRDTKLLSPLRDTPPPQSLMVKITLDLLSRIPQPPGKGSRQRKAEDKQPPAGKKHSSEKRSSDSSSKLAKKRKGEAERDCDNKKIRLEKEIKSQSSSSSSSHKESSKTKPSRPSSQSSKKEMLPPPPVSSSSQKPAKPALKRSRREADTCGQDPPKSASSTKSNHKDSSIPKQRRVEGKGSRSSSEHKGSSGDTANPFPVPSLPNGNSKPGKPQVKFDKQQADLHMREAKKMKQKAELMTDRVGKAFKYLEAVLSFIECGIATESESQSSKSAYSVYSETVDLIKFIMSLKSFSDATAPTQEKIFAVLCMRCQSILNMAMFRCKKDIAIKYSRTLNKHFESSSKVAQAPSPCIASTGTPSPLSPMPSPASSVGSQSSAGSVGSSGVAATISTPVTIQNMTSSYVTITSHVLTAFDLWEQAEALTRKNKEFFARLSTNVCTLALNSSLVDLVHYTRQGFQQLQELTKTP

What was measured:
Assay in all cases: log2 fold change, soluble protein after heating vs DMSO (PISA); higher = thermal stabilisation; K562 lysate, 10 uM; active = over 0.2 and 3.5 SD of the protein, either way, in both replicates (recomputed)
[1] = compound: C1=CC=C(C=C1)[C@H](COC2=CC3=C(C=C2)NC(=O)N3)NC(=O)C4=CC=CN(C4=O)CC5=CC(=C(C=C5)F)F
Procedure, shortened: (§1)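 K562 pellets were dounce-homogenised in PBS pH 7.4 containing 1 mM MgCl2, and the crude extract, at 1 mg/mL protein, was exposed to 10 μM compound for 30 min. Aliquots were heated for 3 min across 48°C-58°C, pooled, brought to 0.5% NP-40 at 4°C and spun at 21,000xg for 90 min, with the supernatant taken as soluble protein. TMTpro 16plex LC-MS/MS with equalised channel sums quantified that protein. Values are log-two fold changes in thermal stability relative to solvent controls, taken from duplicates.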

[2] = compound: CC1=C(SC2=C1C(=N[C@H](C3=NN=C(N32)C)CC(=O)N)C4=CC=C(C=C4)Cl)C
Procedure, shortened: as §1

[3] = compound: CC1=C2C(=CC=C1)N=C(N(C2=O)C3=CC=CC=C3C)CN4C=NC5=C(N=CN=C54)N
Procedure, shortened: as §1

[4] = compound: Cc1sc2c(c1C)C(c1ccc(Cl)cc1)=N[C@@H](CC(=O)OC(C)(C)C)c1nnc(C)n1-2
Procedure, shortened: as §1

[5] = compound: c1ccc([C@@H]2C[C@H]2NC2CCNCC2)cc1
Procedure, shortened: as §1

Measured: log2 fold change

ACTR3 (UniProt P61158)
inactive: [1] 0.049 | [2] -0.026 | [3] 0.012 | [4] 0.024 | [5] 0.018

ACTN2, A0A494C031
inactive: [1] -0.079 | [2] 0.075 | [3] 0.187 | [5] 0.007

ACY1 (UniProt Q03154)
inactive: [1] -0.011 | [2] 0.007 | [3] -0.017 | [4] -0.003 | [5] -0.004

AHSP (UniProt Q9NZD4)
inactive: [1] 0.02 | [2] -0.083 | [3] -0.002 | [5] 0.239

ADK (UniProt P55263)
inactive: [1] 0.059 | [2] -0.035 | [3] 0.051 | [4] -0.036 | [5] -0.133

AGO1 (UniProt Q9UL18)
inactive: [1] -0.01 | [2] 0.017 | [3] 0.048 | [4] -0.013 | [5] 0.03

ADAM15 (UniProt Q13444)
inactive: [1] 0.007 | [2] -0.039 | [4] -0.183 | [5] -0.015

AGPAT5 (UniProt Q9NUQ2)
inactive: [1] 0.011 | [2] 0.047 | [3] -0.002 | [4] -0.003 | [5] -0.04

Quoted at random: 2 entries already listed, in no set order.
ADK (UniProt P55263)
inactive: [1] 0.059 | [2] -0.035 | [3] 0.051 | [4] -0.036 | [5] -0.133

AHSP (UniProt Q9NZD4)
inactive: [1] 0.02 | [2] -0.083 | [3] -0.002 | [5] 0.239

Later entries:

AFAP1L1 (UniProt Q8TED9)
inactive: [1] 0.048 | [2] 0.02 | [4] -0.29

AFF1 isoform 2 (UniProt P51825)
inactive: [1] -0.109 | [2] 0.133 | [3] -0.006 | [4] -0.087 | [5] -0.118
